# Test results published in PubChem BioAssay AID504467 (National Center for Advancing Translational Sciences (NCATS), 2011).
# Among all 330,000 compounds or so, about 7,700 (2.3%) were called active. The shares of active, inactive and inconclusive entries below differ from those in the screen. Calls come from the whole dose curve; as a rule, active = well fitted inhibition curve with a large enough effect; inconclusive = small, poorly fitted or top-dose-only effect, or effect the other way; inactive = flat fitted curve, though single readings scatter. Potencies beside an inconclusive call are fits to weak or partial responses and may not hold up.
# Assay: qHTS screen for small molecules that inhibit ELG1-dependent DNA repair in human embryonic kidney (HEK293T) cells expressing luciferase-tagged ELG1; note: nearly all actives have a fitted effect of over 55% in size
# Conditions: HEK293T ELG1-luciferase reporter, luminescence, 16 h, DNA damage induced by 5-fluorouridine; series mostly up to 46.1 µM
# Procedure, shortened: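 Overnight (16 hr) co-exposure of 2,000 cells/well to 5-fluorouridine and compound at 37 °C preceded detection. Luciferase was quantified via ONE-Glo luminescence; loss of signal denotes inhibition.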
# Potency is the fitted concentration of half-maximal effect.
row,Structure (SMILES),Potency
1,Cc1ccc(N=Cc2c(O)n(C)c(=O)n(C)c2=O)cc1,inactive
2,CCCCCn1c(=O)c(C(=O)Nc2ccccn2)c(O)c2ccccc21,inactive
3,Cc1ccc(-c2cc(-c3ccccc3)cc(-c3ccccc3)[n+]2-c2ccccc2)cc1,"inconclusive: 31.6 µM [inhibitor, single point]"
4,C[C@H]1COC2=C1C(=O)C(=O)c1c2ccc2c1CCCC2(C)C,"inconclusive: 16.4 µM [activator, single point]"
5,NC(=S)c1cn(C2OC(CO)C(O)C2O)c2ncnc(N)c12 (configuration not stated),active: 0.411 µM
6,CC(C)(C)C(=O)c1cn(CC(=O)NCc2ccco2)c2ccccc12,"inconclusive: 20.6 µM [activator, partial curve]"
7,S=C1CN=C(c2ccccc2)c2cc(Cl)ccc2N1,"inconclusive: 23.1 µM [inhibitor, single point]"
8,COc1cc(C(C)=O)ccc1OCc1cc(C(=O)N(C)CCC2CCCCO2)no1 (configuration not stated),"inconclusive: 20.6 µM [activator, partial curve]"
9,COc1cccc(NP(=O)(Oc2ccccc2Cl)Oc2ccccc2Cl)c1,"inconclusive: 29.1 µM [inhibitor, single point]"
10,COc1ccc(-c2nn(CCC#N)cc2C(=O)Nc2ccc(C(C)=O)cc2)cc1,"inconclusive: 1.03 µM [inhibitor, single point]"
11,CC(C)COP(=O)(c1ccc(N(C)C)cc1)C(Nc1ccccc1)c1cccnc1 (configuration not stated),"inconclusive: 14.6 µM [inhibitor, partial curve, poor fit]"
12,CC(C)(C)c1ccccc1O,inactive
13,O=c1c2ccccc2nc(-c2ccco2)n1-c1ccccc1,"inconclusive: 29.1 µM [inhibitor, single point]"
14,CN(C)C(=O)Oc1c(Cl)cc(Cl)c2ccccc12,inactive
15,Cc1c(C(=O)N2CCOCC2)sc2nc(-c3ccccc3)cn12,"inconclusive: 10.3 µM [activator, partial curve]"
16,CCN(CC)S(=O)(=O)c1ccc(C)c(NCC(=O)Nc2ccc(C#N)c(Cl)c2)c1,"inconclusive: 14.6 µM [inhibitor, partial curve]"
17,CO[C@H]1C=C2CCN(C)[C@H]2C2c3cc4c(cc3C(=O)O[C@@H]21)OCO4 (some centres not stated),inactive
18,COc1ccc(-n2c(/C=C/c3cccc(F)c3)nc3ccccc3c2=O)c(OC)c1,"inconclusive: 3.26 µM [inhibitor, partial curve]"
19,CCC(=NCC1CCCO1)c1c(O)n(-c2ccccc2C)c(=O)[nH]c1=O (configuration not stated),"inconclusive: 6.51 µM [inhibitor, single point]"
20,CCOc1ccc(N=Cc2c(O)n(C(C)(C)C)c(=O)[nH]c2=O)cc1,"inconclusive: 16.4 µM [inhibitor, single point]"
21,O=C(NNc1c(F)c(F)cc(F)c1F)c1cc2ccccc2oc1=O,"inconclusive: 20.6 µM [activator, partial curve]"
22,CCOP(=O)(OCC)C(NC(=O)c1ccc(C)cc1)=C(Cl)Cl,"inconclusive: 9.2 µM [activator, partial curve, poor fit]"
23,CN1C(=O)/C(=C\c2ccc(N3CCCCC3)o2)C(=O)NC1=S,"inconclusive: 10.3 µM [activator, partial curve]"

row,Structure (SMILES),Potency
1,CC(=O)Nc1ccc(S(=O)(=O)N2CCSC2c2ccc(C)cc2)cc1 (configuration not stated),active: 16.4 µM
2,CN(C)CCc1nc2ccccc2c(=O)n1-c1ccccc1,"inconclusive: 25.1 µM [activator, single point]"
3,CCOC(=O)[C@@H]1[C@H]2COc3ccc(Br)cc3[C@@H]2N2C(=O)N(c3cccc(C)c3)C(=O)[C@]12C,"inconclusive: 4.61 µM [activator, single point]"
4,O=C1C2C3CCC(C3)C2C(=O)N1c1ccc(OS(=O)(=O)c2ccccc2)cc1 (configuration not stated),"inconclusive: 2.59 µM [activator, partial curve]"
5,O=[N+]([O-])c1ccccc1CNCCc1ccc(F)cc1,"inconclusive: 23.1 µM [activator, single point]"
6,Cc1nc2cc(C(F)(F)F)ccc2n1C1CCN(Cc2nnnn2Cc2ccc3c(c2)OCO3)CC1,active: 6.51 µM
7,CCOc1ccc(/C=C/C(=O)C(C(N)=O)=C2SCCS2)cc1,"inconclusive: 6.51 µM [activator, partial curve]"
8,CCCCCCC(C)(C)c1ccc([C@@H]2C[C@H](O)CC[C@H]2CCCO)c(O)c1,inactive
9,COC(=O)[C@H](Cc1ccccc1)N(Cc1ccccc1)S(=O)(=O)N(Cc1ccccc1)[C@@H](Cc1ccccc1)C(=O)OC,"inconclusive: 4.11 µM [inhibitor, partial curve, poor fit]"
10,CSCCC(NC(=O)CCC(=O)OC1CC[C@H]2[C@@H]3CC[C@H]4CC(=O)CC[C@]4(C)[C@H]3CC[C@]12C)C(=O)O (some centres not stated),inactive
11,c1ccc(-c2[nH]c(-c3ccccc3)[n+](CC3CO3)c2-c2ccccc2)cc1 (configuration not stated),active: 23.1 µM
12,CN1CC=C2C(C#N)=C(N)C(C#N)(C#N)C(c3ccncc3)C2C1 (configuration not stated),inactive
13,C#CCN1C(=O)C2(C(C#N)=C(N)OC(C)=C2C(=O)OCc2ccccc2)c2ccccc21 (configuration not stated),"inconclusive: 0.164 µM [inhibitor, full curve, poor fit]"
14,Cc1cccc(-n2c(-c3ccc([N+](=O)[O-])cc3)nc3ccccc3c2=O)c1,inactive
15,CCCCn1c(=O)c(C(=O)NCc2ccccc2Cl)c(O)c2ccccc21,inactive
16,Clc1ccccc1Nc1ncnc(-n2cccc2)n1,"inconclusive: 8.91 µM [activator, partial curve, poor fit]"
17,C[C@@H]1CCC2[C@@H](C)C(=O)O[C@@H]3OC4(C)CCC1[C@@]23OO4 (some centres not stated),"inconclusive: 32.6 µM [activator, partial curve, poor fit]"
18,CC1CN(C)C(C)(C)CC1(O)c1ccccc1 (configuration not stated),inactive
19,CC1CCCN(c2ccc(C(=O)N3CCC4(CC3)OCCO4)cc2[N+](=O)[O-])C1 (configuration not stated),inactive
20,CCc1ccc(CN2CCN(Cc3cc(Br)ccc3O)CC2)cc1,"inconclusive: 29.1 µM [inhibitor, single point]"
21,Cc1ccc(/C=C2/C(=O)NC(=O)N(C)C2=O)cc1,inactive
22,C[C@H]1CCC[C@@H](O)CCC/C=C/c2cc(O)cc(O)c2C(=O)O1,active: 2.82 µM
23,CC(=O)N1CN(C(C)=O)CN(C(C)=O)C1,"inconclusive: 1.03 µM [inhibitor, partial curve, poor fit]"

row,Structure (SMILES),Potency
1,NC1CCCCC1N=Cc1c(O)n(Cc2ccc(F)cc2)c(=O)[nH]c1=O (configuration not stated),"inconclusive: 29.1 µM [inhibitor, single point]"
2,Cc1ccccc1-n1c(O)c(C=Nc2ccc(N(C)C)cc2)c(=O)[nH]c1=O,inactive
3,CC(=O)c1cccc(OCC(O)CN2CC=C(c3ccccc3)CC2)c1 (configuration not stated),inactive
4,O=C(c1cccn2c(=O)c3cc(Cl)ccc3nc12)N1CCC2(CC1)OCCO2,"inconclusive: 16.4 µM [activator, single point]"
5,Cc1ccc(/C=C2/C(=O)NC(=O)N(CCc3ccc(F)cc3)C2=O)s1,"inconclusive: 29.1 µM [activator, single point]"
6,COC(=O)C(C)Oc1cc(C)cc2oc(=O)c3c(c12)CCC3 (configuration not stated),"inconclusive: 5.17 µM [activator, single point]"
7,CN(C(=O)Oc1ccc([N+](=O)[O-])cc1)c1ccccc1,"inconclusive: 20.6 µM [activator, partial curve, poor fit]"
8,Cn1cc(C(=O)OCC(=O)N2CCCC2)c2ccccc21,"inconclusive: 32.6 µM [activator, partial curve, poor fit]"
9,COc1ccccc1-n1c(-c2ccccc2Br)nc2ccccc2c1=O,inactive
10,COC(=O)C1=C(c2ccc(F)cc2OCc2ccccc2)C[C@@H]2CC[C@H]1N2C(=O)NCCCc1ccccc1,"inconclusive: 18.3 µM [inhibitor, single point]"
11,CCc1nn(CC(=O)N2CCN(Cc3ccc4c(c3)OCO4)CC2)c(=O)c2cc3occc3n12,active: 20.6 µM
12,CC(=O)OC1C2CCCC1C(N1CCCC1)CC2 (configuration not stated),"inconclusive: 6.51 µM [activator, single point]"
13,Cc1nc2ccccn2c1P(=S)(N1CCCCC1)N1CCCCC1,"inconclusive: 25.9 µM [inhibitor, single point]"
14,C/C(=N\Nc1ccccc1)c1c(O)[nH]c(=O)[nH]c1=O,active: 5.17 µM
15,C[C@H](CO)N1C[C@H](C)[C@@H](CN(C)C(=O)Nc2ccccc2)Oc2c(NC(=O)Nc3ccccc3)cccc2C1=O,"inconclusive: 5.8 µM [inhibitor, partial curve]"
16,Clc1ccc2[nH]c3c(c2c1)CCNC3,inactive
17,COc1ccc(-n2c(O)c(C(C)=NCc3ccco3)c(=O)[nH]c2=O)cc1,"inconclusive: 6.51 µM [inhibitor, single point]"
18,COc1cc(C=C2C(=O)NC(=O)NC2=O)cc(OC)c1OC,"inconclusive: 29.1 µM [activator, single point]"
19,CC(C)(O)/C=C/C(=O)[C@](C)(O)C1[C@H](O)C[C@@]2(C)C3CC=C4C(C[C@H](O)[C@@H](O)C4(C)C)[C@]3(C)C(=O)C[C@]12C (some centres not stated),"inconclusive: 32.6 µM [inhibitor, single point]"
20,COC(=O)C1=C(c2ccc(-c3ccccc3)c(F)c2)C[C@@H]2CC[C@H]1N2C(=O)NCc1ccco1,"inconclusive: 25.9 µM [inhibitor, partial curve, poor fit]"
21,O=C(Nc1nccs1)c1c(O)c2c(n(Cc3ccco3)c1=O)CCCC2,"inconclusive: 20.6 µM [inhibitor, single point]"

# Of the compounds above, these contain a cyano group:
row,Structure (SMILES),Potency
10,COc1ccc(-c2nn(CCC#N)cc2C(=O)Nc2ccc(C(C)=O)cc2)cc1,"inconclusive: 1.03 µM [inhibitor, single point]"
16,CCN(CC)S(=O)(=O)c1ccc(C)c(NCC(=O)Nc2ccc(C#N)c(Cl)c2)c1,"inconclusive: 14.6 µM [inhibitor, partial curve]"
12,CN1CC=C2C(C#N)=C(N)C(C#N)(C#N)C(c3ccncc3)C2C1 (configuration not stated),inactive
13,C#CCN1C(=O)C2(C(C#N)=C(N)OC(C)=C2C(=O)OCc2ccccc2)c2ccccc21 (configuration not stated),"inconclusive: 0.164 µM [inhibitor, full curve, poor fit]"
